Binding data for two substances are collected here from article PMC11555414.

The chains behind the UniProt entries cited, without tags or fusion partners. Residues count along the entry.
UniProt P23368, residues 19-584: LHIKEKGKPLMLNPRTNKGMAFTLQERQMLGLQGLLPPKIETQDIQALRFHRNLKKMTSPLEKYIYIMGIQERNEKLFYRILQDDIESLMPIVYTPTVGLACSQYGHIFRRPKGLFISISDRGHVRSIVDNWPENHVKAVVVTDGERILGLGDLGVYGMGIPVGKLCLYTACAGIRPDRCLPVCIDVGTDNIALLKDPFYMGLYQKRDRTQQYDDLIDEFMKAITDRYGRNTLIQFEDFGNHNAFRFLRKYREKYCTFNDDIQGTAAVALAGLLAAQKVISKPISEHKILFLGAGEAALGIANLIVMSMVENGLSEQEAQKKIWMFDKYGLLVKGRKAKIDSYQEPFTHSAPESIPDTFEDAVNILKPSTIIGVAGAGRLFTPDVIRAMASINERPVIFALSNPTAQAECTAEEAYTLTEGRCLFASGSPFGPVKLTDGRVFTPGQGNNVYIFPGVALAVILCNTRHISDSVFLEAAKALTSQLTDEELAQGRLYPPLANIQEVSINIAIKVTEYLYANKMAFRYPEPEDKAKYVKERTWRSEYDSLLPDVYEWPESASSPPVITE
UniProt Q99873: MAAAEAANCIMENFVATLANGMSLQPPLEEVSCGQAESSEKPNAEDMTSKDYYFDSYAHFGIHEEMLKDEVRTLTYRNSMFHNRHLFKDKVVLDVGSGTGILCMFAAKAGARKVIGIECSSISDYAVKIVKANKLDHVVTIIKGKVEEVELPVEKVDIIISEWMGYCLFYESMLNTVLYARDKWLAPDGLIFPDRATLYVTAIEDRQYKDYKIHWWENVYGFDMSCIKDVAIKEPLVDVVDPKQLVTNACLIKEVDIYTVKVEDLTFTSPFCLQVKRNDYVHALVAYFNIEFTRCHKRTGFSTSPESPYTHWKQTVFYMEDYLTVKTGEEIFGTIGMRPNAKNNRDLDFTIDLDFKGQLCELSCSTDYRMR
UniProt Q969H0: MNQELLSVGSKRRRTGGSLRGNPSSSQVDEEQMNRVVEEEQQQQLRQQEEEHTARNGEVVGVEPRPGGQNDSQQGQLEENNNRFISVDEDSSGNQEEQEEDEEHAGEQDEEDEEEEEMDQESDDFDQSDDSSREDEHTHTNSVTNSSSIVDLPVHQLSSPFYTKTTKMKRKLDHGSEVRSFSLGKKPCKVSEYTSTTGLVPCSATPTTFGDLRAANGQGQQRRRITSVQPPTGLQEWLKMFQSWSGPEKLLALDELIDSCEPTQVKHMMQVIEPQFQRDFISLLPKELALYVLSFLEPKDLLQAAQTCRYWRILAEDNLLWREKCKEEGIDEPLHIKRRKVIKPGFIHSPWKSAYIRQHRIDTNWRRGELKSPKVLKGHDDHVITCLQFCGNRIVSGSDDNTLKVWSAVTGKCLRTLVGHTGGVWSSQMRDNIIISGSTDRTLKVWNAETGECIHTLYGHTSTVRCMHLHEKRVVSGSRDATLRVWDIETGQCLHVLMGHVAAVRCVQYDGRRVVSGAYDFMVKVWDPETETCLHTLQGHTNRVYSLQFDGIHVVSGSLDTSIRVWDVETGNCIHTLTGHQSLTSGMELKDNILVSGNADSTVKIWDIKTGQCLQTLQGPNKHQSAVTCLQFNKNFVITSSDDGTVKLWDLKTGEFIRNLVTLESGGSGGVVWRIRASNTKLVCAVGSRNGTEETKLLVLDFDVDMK

The test concerns the target HA-tagged ME2 (mitochondrial malic enzyme 2) (human) (UniProt P23368). Briefly: affinity purification with mass spectrometry; HEK293T cells consistently expressing HA-ME2 lysed, IP with HA beads, SDS-PAGE, Coomassie-stained bands digested with trypsin, LC-MS/MS.

Results are given in words; binding and its absence hold for the method and conditions named. In cells and extracts the contact can be indirect. Here binding means that the protein was enriched with, or labelled near, the bait; the list need not be complete.

As to “protein arginine methyltransferase 1 (PRMT1), endogenous in HEK293T (from UniProt Q99873 1-371) (enzyme)”, the binding result is listed as “binds”.

For “FBW7, endogenous in HEK293T (from UniProt Q969H0 1-707)”, the binding entry is reported as “binds”.
